Results published in publication PMC4605318.

By UniProt entry, the sequences of proteins in these tests, tags left out.
UniProt P42694: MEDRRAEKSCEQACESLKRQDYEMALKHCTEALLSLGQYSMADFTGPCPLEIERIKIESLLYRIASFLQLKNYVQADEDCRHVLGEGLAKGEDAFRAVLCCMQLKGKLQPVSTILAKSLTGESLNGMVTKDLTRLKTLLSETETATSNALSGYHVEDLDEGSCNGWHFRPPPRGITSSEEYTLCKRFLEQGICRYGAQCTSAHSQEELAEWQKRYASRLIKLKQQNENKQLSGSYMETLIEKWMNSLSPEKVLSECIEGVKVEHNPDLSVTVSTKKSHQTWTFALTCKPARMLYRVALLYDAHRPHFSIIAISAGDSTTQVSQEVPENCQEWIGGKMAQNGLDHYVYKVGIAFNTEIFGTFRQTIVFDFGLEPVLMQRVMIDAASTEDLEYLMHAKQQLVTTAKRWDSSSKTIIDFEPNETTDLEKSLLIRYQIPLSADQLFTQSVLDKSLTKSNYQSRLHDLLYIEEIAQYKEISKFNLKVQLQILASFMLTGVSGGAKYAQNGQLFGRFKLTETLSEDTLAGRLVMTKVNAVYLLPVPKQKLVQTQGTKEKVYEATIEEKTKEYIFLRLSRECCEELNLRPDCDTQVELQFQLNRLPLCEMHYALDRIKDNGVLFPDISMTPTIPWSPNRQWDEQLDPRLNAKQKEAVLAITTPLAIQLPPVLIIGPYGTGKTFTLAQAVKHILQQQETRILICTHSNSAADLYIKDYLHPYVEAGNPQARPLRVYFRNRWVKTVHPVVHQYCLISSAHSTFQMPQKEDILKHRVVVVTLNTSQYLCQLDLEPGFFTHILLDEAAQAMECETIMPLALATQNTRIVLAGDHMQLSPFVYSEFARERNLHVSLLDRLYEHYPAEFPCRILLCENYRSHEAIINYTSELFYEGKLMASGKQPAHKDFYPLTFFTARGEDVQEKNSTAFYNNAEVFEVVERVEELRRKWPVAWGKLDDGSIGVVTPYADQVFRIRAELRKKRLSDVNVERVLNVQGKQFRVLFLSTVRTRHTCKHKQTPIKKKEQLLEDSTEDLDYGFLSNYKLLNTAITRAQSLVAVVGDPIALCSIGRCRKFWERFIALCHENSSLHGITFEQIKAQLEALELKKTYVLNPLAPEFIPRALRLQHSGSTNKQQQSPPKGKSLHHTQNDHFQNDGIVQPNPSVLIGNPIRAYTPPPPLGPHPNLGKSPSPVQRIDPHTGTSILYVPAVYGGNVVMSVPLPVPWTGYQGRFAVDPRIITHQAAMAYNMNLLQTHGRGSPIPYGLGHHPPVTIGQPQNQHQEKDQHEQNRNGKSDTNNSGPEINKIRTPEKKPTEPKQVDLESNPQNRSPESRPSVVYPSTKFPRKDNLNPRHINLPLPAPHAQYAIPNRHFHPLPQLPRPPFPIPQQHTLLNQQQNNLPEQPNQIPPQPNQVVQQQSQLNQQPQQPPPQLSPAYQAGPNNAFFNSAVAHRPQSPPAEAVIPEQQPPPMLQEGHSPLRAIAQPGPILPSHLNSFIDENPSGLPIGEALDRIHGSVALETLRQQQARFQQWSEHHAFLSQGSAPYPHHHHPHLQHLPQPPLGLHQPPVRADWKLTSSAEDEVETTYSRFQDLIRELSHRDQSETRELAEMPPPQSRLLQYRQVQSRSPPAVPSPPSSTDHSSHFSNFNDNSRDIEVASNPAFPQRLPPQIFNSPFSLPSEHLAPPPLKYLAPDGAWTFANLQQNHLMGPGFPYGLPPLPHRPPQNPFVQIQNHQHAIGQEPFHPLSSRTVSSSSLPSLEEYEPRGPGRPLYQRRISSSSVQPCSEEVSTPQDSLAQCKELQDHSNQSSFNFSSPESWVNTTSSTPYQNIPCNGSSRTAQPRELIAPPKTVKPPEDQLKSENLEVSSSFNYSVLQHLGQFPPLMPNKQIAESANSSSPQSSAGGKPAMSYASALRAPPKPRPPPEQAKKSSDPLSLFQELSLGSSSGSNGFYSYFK

Molecular target: T1, FLAG-HA-SMYD3 (SET and MYND domain containing protein 3) (human) (UniProt Q9H7B4)
T1 sequence: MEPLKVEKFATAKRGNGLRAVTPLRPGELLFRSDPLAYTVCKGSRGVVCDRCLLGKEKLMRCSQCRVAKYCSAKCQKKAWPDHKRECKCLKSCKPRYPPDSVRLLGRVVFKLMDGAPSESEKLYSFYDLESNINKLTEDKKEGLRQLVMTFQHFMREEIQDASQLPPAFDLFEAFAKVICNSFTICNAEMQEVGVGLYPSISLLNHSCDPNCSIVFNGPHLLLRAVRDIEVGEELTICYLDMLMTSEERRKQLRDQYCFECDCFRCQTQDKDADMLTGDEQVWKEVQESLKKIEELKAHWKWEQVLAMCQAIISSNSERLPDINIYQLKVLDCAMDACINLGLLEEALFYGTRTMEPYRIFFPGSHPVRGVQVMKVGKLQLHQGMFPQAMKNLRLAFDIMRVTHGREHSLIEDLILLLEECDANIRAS
Experiment: affinity purification with mass spectrometry; FLAG-HA-SMYD3 stably expressed in HCT116; nuclear extracts; sequential immunoprecipitation with anti-FLAG M2 and anti-HA antibodies in 20 mM Tris-HCl pH 7.3, 300 mM KCl, 0.2 mM EDTA, 20% glycerol, 0.1% Nonidet P-40; major bands of a 4–20% SDS-PAGE gel analysed by LC-MS/MS

Row | Substance | binding
1 | HSP90A (from UniProt P07900 1-732) | binds
2 | RNA helicase HELZ (from UniProt P42694 1-1942) | binds

No constants are given. Whether binding was seen depends on the method and setting. Binding seen in cells or lysates may run through a third protein. These calls come from enrichment with a bait or labelling near it, and not all partners need be listed. Tags and fused reporters may be left off the sequences shown.
